In article PMC8909696 one finds binding data, which are given here for 1 molecule.

Protein sequences, listed by entry. Tags and fused reporters are not part of them.
UniProt P50637: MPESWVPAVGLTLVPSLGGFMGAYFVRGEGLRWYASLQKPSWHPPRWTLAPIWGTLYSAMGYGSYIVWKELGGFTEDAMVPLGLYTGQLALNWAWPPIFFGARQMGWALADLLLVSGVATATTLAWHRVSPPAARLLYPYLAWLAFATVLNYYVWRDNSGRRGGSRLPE

Results are given in words; binding and its absence hold for the method and conditions named. Binding seen in cells or lysates may run through a third protein. Some entries that bind do so weakly or less than the wild type.

Test [1] concerns the target 18-kDa translocator protein (TSPO) (mouse (endogenous in peritoneal macrophages)) (UniProt P50637). In words: co-IP; endogenous proteins of mouse peritoneal macrophages at steady state (no LPS plus ATP); NP-40 IP lysis buffer, primary antibodies 10 h at 4 °C, Protein G Dynabeads, SDS-PAGE.
For test [2] the target is unchanged. In words: condition: only steady state, cells without LPS plus ATP; co-IP; endogenous proteins of mouse peritoneal macrophages at steady state (no LPS plus ATP); NP-40 IP lysis buffer, primary antibodies 10 h at 4 °C, Protein G Dynabeads, SDS-PAGE.
Test [3] has the same target. Put plainly: co-IP; endogenous proteins of mouse peritoneal macrophages after LPS plus ATP (pyroptosis induction); NP-40 IP lysis buffer, primary antibodies 10 h at 4 °C, Protein G Dynabeads, SDS-PAGE.

B1: GSDMD (protein, UniProt Q9D8T2 1-487)
chain: MPSAFEKVVKNVIKEVSGSRGDLIPVDSLRNSTSFRPYCLLNRKFSSSRFWKPRYSCVNLSIKDILEPSAPEPEPECFGSFKVSDVVDGNIQGRVMLSGMGEGKISGGAAVSDSSSASMNVCILRVTQKTWETMQHERHLQQPENKILQQLRSRGDDLFVVTEVLQTKEEVQITEVHSQEGSGQFTLPGALCLKGEGKGHQSRKKMVTIPAGSILAFRVAQLLIGSKWDILLVSDEKQRTFEPSSGDRKAVGQRHHGLNVLAALCSIGKQLSLLSDGIDEEELIEAADFQGLYAEVKACSSELESLEMELRQQILVNIGKILQDQPSMEALEASLGQGLCSGGQVEPLDGPAGCILECLVLDSGELVPELAAPIFYLLGALAVLSETQQQLLAKALETTVLSKQLELVKHVLEQSTPWQEQSSVSLPTVLLGDCWDEKNPTWVLLEECGLRLQVESPQVHWEPTSLIPTSALYASLFLLSSLGQKPC
Regarding B1, the figures for the binding result in test [1], in test [2] and in test [3] were “binds weakly”, “no binding” and “binds”, respectively.
